Source: publication doi:10.1101/2025.04.14.648762
No constants are given. Whether binding was seen depends on the method and setting. Binding seen in cells or lysates may run through a third protein. Some entries that bind do so weakly or less than the wild type.

Sequences of proteins named here, by UniProt entry; tags and fusion partners are left off.
UniProt P25098: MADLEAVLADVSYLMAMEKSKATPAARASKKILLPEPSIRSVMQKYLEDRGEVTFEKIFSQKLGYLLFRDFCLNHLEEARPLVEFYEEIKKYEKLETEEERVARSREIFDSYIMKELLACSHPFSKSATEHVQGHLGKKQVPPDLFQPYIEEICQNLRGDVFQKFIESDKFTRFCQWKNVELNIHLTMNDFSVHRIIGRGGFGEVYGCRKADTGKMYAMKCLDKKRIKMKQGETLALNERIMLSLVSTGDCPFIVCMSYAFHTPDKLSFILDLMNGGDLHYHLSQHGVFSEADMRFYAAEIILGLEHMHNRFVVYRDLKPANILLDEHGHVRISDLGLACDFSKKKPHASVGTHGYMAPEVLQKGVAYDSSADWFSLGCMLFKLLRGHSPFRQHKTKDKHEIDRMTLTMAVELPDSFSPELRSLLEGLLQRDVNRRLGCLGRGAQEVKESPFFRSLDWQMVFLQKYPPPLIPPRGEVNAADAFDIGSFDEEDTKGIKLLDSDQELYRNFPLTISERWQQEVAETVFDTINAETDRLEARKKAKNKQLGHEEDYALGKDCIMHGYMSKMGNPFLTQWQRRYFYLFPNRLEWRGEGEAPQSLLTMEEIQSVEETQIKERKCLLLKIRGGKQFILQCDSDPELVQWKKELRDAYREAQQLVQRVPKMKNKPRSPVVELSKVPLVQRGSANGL
UniProt Q8TCU6: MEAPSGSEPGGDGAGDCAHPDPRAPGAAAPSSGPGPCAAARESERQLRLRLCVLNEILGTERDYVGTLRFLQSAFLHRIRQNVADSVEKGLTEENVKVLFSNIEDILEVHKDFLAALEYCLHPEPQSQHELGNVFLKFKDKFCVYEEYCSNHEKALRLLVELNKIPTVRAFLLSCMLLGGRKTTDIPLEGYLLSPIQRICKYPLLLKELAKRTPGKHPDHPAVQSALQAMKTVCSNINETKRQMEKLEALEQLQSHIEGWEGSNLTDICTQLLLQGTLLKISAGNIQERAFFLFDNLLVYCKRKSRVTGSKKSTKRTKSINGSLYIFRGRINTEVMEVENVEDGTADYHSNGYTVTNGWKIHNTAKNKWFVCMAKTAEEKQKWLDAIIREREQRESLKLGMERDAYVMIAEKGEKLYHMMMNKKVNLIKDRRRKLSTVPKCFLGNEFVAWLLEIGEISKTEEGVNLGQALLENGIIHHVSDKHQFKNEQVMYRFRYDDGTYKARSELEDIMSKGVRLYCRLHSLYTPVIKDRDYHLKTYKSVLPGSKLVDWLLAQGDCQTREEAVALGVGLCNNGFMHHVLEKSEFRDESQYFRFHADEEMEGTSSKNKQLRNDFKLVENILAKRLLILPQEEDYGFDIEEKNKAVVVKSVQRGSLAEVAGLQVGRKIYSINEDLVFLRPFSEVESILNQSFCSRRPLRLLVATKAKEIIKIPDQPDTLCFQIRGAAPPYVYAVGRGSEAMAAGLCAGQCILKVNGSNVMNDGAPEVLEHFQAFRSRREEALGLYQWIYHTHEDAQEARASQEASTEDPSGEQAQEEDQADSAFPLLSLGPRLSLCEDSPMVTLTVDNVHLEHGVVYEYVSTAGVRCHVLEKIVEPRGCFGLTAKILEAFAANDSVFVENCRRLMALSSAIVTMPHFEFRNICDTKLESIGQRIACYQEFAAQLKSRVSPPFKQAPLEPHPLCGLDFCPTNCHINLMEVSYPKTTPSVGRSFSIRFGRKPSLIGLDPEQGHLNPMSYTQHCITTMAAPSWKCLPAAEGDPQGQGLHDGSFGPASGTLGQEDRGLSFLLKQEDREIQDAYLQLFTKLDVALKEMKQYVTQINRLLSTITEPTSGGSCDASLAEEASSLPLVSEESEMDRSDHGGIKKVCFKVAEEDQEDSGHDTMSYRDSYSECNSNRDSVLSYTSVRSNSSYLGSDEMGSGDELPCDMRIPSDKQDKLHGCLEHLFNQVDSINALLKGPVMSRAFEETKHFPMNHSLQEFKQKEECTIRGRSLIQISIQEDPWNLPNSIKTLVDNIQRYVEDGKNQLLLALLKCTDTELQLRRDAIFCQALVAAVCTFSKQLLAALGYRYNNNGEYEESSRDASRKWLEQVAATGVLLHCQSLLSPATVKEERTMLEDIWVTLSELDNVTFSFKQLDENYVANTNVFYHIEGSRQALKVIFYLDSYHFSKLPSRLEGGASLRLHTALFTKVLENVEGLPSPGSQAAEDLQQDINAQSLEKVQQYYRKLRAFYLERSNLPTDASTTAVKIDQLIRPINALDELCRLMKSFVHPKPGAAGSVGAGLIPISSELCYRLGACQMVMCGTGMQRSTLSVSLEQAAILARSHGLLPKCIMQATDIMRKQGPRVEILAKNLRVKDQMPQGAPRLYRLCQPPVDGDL

Target: flag-Grk2 (UniProt P25098)
Assay: co-IP

binding: binds
Substance: myc-P-Rex1 (from UniProt Q8TCU6 1-1659)
